Results are given in words; binding and its absence hold for the method and conditions named. Some results given as binding are weak or reduced against the parent protein; the word gives no strength.

Protein sequences, listed by entry. Tags and fused reporters are not part of them. Lines headed by an entry give the natural chain unless they say otherwise; changes in a name come on top.
UniProt P40259: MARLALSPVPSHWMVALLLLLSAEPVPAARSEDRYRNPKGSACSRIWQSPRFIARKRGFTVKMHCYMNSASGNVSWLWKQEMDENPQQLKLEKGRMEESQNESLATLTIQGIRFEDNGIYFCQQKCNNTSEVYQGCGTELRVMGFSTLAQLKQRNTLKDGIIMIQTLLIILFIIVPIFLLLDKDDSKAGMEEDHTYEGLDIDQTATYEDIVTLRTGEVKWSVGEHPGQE

For experiment [1], the target named is extracellular domain of human CD79b (huCD79becd) (human) (UniProt P40259). Kind of experiment: phage selection on immobilized antigen.
Experiment [2] shares this target. Nature of the experiment: Biacore (SPR), antigen immobilized. In general terms: Surface plasmon resonance follows binding to a sensor surface in real time, without labels.

B1: 2F2-grafted "humanized" antibody variant 7 (hu2F2.D7) as a Fab displayed on phage (Fab, V domains shown)
VH: EVQLVESGGGLVQPGGSLRLSCAASGYTFTSYWMNWVRQAPGKGLEWVGMIDPSDSETHYNHIFKDRFTISADTSKNTAYLQMNSLRAEDTAVYYCARNLYLWGQGTLVTVSS
VL: DIQMTQSPSSLSASVGDRVTITCKSSQSLLDSDGKTYLNWYQQKPGKAPKLLIYLVSKLDSGVPSRFSGSGSGTDFTLTISSLQPEDFATYYCFQGTHFPFTFGQGTKVEIKR
Consider B1, for which the binding entry in experiment [1] was “binds”.

B2: 2F2-grafted "humanized" antibody variant 7 (hu2F2.D7), reformatted as IgG (antibody, V domains shown)
VH: EVQLVESGGGLVQPGGSLRLSCAASGYTFTSYWMNWVRQAPGKGLEWVGMIDPSDSETHYNHIFKDRFTISADTSKNTAYLQMNSLRAEDTAVYYCARNLYLWGQGTLVTVSS
VL: DIQMTQSPSSLSASVGDRVTITCKSSQSLLDSDGKTYLNWYQQKPGKAPKLLIYLVSKLDSGVPSRFSGSGSGTDFTLTISSLQPEDFATYYCFQGTHFPFTFGQGTKVEIKR
B2: in experiment [2], the binding entry was “binds”.

For the origin of these results see patent publication US20090068202A1.
